Here are results for two substances from PMC10657439 (Cell Death and Differentiation, 2023).

Sequences of proteins named here, by UniProt entry; tags and fusion partners are left off. A change or cut given only in a name is not applied to a line headed by its entry. Residues count along the entry.
UniProt P25445, residues 26-173: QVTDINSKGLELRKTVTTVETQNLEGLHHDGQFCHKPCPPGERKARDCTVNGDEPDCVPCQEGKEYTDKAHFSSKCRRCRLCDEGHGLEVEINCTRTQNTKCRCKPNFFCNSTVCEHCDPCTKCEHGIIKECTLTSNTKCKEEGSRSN
UniProt P48023: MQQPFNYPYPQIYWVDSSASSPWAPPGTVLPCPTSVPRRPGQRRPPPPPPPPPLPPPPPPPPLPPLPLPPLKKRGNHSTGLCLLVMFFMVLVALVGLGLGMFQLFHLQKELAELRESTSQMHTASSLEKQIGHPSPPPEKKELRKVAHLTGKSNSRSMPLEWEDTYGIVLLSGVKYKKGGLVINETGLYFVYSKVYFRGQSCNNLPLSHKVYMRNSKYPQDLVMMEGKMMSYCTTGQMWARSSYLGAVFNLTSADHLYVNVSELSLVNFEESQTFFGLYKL

For the assay, the target named is Fc-tagged Fas (recombinant extracellular domain of Fas with a C-terminal Fc) (human) (UniProt P25445). Nature of the assay: ELISA; Fc-tagged Fas (2 μg/ml) coated on 96-well plates; His-tagged FasL (single or tandem) in 2-fold dilutions from 50 to 0.048 nM, 1 h at 37 °C; both purified. (An ELISA detects its analyte on a solid surface through an enzyme-linked reagent.)

Results are given in words; binding and its absence hold for the method and conditions named.

Consider “FasL^ED163-164AA (from UniProt P48023) (ligand)”, for which the binding result is given as “no binding”.

For the substance “FasL^EE270-271AA (from UniProt P48023) (ligand)”, the binding entry was “no binding”.
